For assay [1], the target named is GST-KLF4-TAD (human KLF4 amino acids 91-116, transactivation domain, fused to GST) (human). As to the kind of experiment: pull-down; Sepharose-4B bound GST-fusion proteins incubated with hLMVEC nuclear extracts at 4°C, washed 5 times with nuclear extraction buffer; Western blot with anti-KLF2; only the target purified. Background: A western blot detects proteins with antibodies after separation by electrophoresis.

The chains behind the UniProt entries cited, without tags or fusion partners.
UniProt O43474: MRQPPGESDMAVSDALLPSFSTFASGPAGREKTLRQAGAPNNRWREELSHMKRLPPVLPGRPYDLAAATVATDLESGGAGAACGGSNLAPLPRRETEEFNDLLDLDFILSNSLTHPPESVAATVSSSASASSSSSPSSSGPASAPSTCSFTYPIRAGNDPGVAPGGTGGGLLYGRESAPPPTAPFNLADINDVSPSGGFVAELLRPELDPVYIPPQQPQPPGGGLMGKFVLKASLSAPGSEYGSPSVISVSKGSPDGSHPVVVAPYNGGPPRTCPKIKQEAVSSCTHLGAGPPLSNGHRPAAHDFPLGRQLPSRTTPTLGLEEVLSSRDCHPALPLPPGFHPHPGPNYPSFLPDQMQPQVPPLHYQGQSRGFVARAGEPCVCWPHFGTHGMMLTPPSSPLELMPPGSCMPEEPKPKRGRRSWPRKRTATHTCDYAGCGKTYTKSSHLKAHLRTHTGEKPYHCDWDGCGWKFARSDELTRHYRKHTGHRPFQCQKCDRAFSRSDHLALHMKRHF
UniProt Q09472: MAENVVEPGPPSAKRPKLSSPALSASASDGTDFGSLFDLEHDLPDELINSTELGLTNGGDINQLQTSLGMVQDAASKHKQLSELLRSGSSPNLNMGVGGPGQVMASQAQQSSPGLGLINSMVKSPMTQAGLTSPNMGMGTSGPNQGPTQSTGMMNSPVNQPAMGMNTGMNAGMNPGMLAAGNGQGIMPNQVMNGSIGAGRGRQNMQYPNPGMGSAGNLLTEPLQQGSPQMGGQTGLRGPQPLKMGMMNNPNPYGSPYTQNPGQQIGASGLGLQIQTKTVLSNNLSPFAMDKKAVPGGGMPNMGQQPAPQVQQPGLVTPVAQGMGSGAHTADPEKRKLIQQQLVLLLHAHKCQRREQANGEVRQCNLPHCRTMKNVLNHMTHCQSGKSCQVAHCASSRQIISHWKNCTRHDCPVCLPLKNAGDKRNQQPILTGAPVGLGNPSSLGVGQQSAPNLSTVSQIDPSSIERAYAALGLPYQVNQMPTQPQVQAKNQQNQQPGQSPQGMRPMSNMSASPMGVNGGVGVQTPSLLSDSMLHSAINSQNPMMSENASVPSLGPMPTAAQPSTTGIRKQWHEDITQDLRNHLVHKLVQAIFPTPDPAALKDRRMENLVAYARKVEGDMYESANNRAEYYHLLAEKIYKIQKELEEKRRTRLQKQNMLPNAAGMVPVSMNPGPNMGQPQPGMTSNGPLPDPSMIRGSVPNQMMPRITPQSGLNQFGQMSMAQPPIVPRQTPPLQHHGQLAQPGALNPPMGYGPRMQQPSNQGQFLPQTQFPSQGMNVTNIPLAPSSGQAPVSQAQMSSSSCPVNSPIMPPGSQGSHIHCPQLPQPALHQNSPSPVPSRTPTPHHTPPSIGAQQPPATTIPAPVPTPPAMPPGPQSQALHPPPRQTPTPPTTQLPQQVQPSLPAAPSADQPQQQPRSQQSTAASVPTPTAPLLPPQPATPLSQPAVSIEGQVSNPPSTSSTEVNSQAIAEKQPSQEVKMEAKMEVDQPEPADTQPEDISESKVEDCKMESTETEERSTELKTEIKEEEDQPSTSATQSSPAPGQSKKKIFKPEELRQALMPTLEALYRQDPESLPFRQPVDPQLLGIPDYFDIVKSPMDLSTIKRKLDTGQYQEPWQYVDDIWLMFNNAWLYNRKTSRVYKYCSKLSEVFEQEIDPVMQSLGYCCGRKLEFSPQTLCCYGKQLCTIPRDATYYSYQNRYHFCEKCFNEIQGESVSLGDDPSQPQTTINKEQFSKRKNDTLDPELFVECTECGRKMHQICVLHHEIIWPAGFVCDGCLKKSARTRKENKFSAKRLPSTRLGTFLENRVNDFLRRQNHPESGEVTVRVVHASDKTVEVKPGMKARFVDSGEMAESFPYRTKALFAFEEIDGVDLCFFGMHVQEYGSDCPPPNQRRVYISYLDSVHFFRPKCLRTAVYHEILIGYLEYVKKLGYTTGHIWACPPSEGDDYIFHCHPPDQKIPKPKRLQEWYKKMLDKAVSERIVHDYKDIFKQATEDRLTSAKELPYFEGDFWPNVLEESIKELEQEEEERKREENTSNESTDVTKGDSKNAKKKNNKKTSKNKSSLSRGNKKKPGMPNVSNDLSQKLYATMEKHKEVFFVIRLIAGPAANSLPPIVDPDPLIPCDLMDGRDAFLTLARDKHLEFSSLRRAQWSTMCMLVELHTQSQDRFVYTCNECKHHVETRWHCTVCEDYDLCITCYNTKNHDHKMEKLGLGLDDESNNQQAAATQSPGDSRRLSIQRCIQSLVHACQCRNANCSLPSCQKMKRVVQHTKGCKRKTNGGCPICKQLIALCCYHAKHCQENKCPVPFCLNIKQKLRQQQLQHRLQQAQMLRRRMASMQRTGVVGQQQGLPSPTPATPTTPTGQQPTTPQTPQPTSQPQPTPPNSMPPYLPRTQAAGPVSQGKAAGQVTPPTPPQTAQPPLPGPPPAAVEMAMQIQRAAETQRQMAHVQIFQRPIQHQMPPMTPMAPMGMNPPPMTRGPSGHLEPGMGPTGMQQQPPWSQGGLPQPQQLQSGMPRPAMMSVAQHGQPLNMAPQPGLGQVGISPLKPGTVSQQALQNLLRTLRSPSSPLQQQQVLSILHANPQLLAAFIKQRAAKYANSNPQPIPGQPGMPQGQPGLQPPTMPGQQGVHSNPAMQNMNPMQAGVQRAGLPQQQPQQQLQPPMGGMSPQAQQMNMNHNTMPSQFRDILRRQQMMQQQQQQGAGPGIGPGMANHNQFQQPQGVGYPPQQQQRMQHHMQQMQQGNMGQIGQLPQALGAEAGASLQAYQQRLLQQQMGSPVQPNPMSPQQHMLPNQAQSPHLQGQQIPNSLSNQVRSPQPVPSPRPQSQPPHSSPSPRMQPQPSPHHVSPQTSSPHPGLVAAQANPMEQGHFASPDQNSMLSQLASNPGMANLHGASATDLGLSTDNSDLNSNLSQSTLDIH
UniProt Q9Y5W3: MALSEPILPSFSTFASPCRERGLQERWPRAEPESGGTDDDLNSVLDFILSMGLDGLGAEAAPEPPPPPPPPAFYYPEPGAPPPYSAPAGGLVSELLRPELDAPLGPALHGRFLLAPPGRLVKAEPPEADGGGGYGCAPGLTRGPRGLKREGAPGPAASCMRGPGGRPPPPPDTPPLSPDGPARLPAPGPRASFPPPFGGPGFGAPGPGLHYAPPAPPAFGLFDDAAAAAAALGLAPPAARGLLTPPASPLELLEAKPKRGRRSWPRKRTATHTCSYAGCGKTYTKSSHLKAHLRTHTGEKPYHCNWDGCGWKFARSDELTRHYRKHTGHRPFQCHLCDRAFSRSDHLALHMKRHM

Assay [2] deals with Krüppel Like Factor-4 (KLF4), endogenous in human lung microvascular endothelial cells (human (endogenous in hLMVECs)) (UniProt O43474). As to the kind of experiment: co-IP; endogenous proteins; RIPA buffer solubilized nuclear lysates of confluent hLMVECs; reciprocal IP with anti-KLF2, anti-KLF4, anti-p300 or control IgG, Protein-G Sepharose, 4°C, washed 5 times with Tris pH 7.5; Western blot.

The target in assay [3] is p300, endogenous in human lung microvascular endothelial cells (human (endogenous in hLMVECs)) (UniProt Q09472). Described as above.
For assay [4], the target named is Krüppel Like Factor-2 (KLF2), endogenous in human lung microvascular endothelial cells (human (endogenous in hLMVECs)) (UniProt Q9Y5W3). The assay is described as above.

Results are given in words; binding and its absence hold for the method and conditions named. Binding seen in cells or lysates may run through a third protein. Some entries that bind do so weakly or less than the wild type.

In the case of “Krüppel Like Factor-2 (KLF2), endogenous in human lung microvascular endothelial cells (from UniProt Q9Y5W3 1-355)”, the binding entry in assay [1], in assay [2] and in assay [3] was “binds” each time.

For “Krüppel Like Factor-4 (KLF4), endogenous in human lung microvascular endothelial cells (from UniProt O43474 1-513)”, the binding result in assay [4] and in assay [3] was “binds” throughout.

In the case of “p300, endogenous in human lung microvascular endothelial cells (from UniProt Q09472 1-2414)”, the binding result in assay [4] and in assay [2] was “binds” throughout.

The values are drawn from publication PMC9679496.
